Patent US12247063B2, “Cell surface modification by coating with peptide amphiphiles (PAs)” (Northwestern University, priority 2020, dated 2025)
pKd: −log10 of the molar value. Part of at least one peptide drawing is inferred or uncertain, most often the ends. For some assays here: At least one compound was matched to its structure with a doubt left. Peptide text beside a SMILES is read from it.

How the values were obtained:
[1] = target: T1, Recombinant Human VCAM-1/CD106 Fc chimera protein (Homo sapiens, UniProt P19320); test: Biolayer interferometry (BLI) binding to VCAM-1 protein
T1 construct: Fc (immunoglobulin Fc fusion partner); His tag (inferred from capture on anti-penta-His sensor); purchased R&D Systems
Experimental: The PA solution of each PA were prepared with the concentration 1 mM after annealing and serial dilutions were made for 100, 10, 1 μM, 100, 10, 1 nM solutions using DPBS. Recombinant Human VCAM-1/CD106 Fc chimera protein (R&D Systems) was purchased and the stock solution of 100 μg/mL was prepared according to the manufacturer's instructions and stored in −80° C. until use. For measurement, the protein solution was diluted to […]. The binding responses were measured and recorded by BLItz Bio-Layer Interferometer in Keck Biophysics Facility, Chicago campus, Northwestern University. The biosensor utilized for this study was Anti-Penta-HIS Biosensors (ForteBio). The measuring protocol is as follows: 30 seconds of initial baseline measurement, 600 seconds of protein (VCAM-1) immobilization, 30 seconds of base line measurement, 300 seconds of association measurement, 300 seconds of dissociation measurement. The dissociation constant was calculated by BLItz Pro Software.

[2] = system: human regulatory T (hTreg) cells; test: PA nanofiber coating of human regulatory T cells (flow cytometry, confocal); type: cell-based; conditions: 500 μM coating solution
Experimental: To isolate the Treg cells, the apheresis product collected from peripheral blood was suspended in a de-clumping buffer (Miltenyi PBS/EDTA Buffer, 25% Human Serum Albumin (HSA), MgCl2, and Pulmozyme). Using CliniMACS Plus and GMP grade reagents, the CD8 and CD19 depletion and CD25+ enrichment was carried out (Miltenyi). The isolated Tregs were stimulated/expanded with Exp-Act® beads at a 4:1 (bead:cell) ratio in a TexMACS medium supplemented with 5% heat-inactivated AB serum, 1,000 IU/ml IL-2, 100 ng/ml Sirolimus (SRL: Rapamycin; Sigma Aldrich) and 1 μg/ml TGF-β (Miltenyi Biotec). The cells were then restimulated with Exp-Act® beads, at a ratio of 1:1 beads on Day 7 and 14. […]
All cells were stained by Calcein AM (Life Technologies) and Hoechst 33342 (Life Technologies) according to manufacturer's instructions for imaging and the flow cytometry analysis. For confocal fluorescence imaging and imaging with z-stacks, Nikon X1 Spinning Disk Confocal microscope in Center for Advanced Microscopy/Nikon Imaging Center (CAM), Northwestern University was utilized. […]
In order to quantify the coating efficiency, mean fluorescence intensity (MFI) and the viability of the cells, LSR Fortessa and Diva software (BD Biosciences) was utilized. […] The viability was calculated by dividing the number of Calcein-AM+ (living cells) by the total number of cells.

[3] = system: responder PBMC proliferation; test: Treg mixed lymphocyte reaction (MLR) suppression assay; type: cell-based, human
injured kidney = test: Kidney ischemic reperfusion injury, PA-coated mouse Tregs injected via tail; type: in vivo; conditions: two mice, left kidney clamped and released, flow cytometry of kidney cells
VCAM-1 = target: T2, VCAM-1 (Homo sapiens, UniProt P19320); test: Binding assay of coated cells to VCAM-1 coated surface; type: cell-based
T2 sequence (P19320 25-739): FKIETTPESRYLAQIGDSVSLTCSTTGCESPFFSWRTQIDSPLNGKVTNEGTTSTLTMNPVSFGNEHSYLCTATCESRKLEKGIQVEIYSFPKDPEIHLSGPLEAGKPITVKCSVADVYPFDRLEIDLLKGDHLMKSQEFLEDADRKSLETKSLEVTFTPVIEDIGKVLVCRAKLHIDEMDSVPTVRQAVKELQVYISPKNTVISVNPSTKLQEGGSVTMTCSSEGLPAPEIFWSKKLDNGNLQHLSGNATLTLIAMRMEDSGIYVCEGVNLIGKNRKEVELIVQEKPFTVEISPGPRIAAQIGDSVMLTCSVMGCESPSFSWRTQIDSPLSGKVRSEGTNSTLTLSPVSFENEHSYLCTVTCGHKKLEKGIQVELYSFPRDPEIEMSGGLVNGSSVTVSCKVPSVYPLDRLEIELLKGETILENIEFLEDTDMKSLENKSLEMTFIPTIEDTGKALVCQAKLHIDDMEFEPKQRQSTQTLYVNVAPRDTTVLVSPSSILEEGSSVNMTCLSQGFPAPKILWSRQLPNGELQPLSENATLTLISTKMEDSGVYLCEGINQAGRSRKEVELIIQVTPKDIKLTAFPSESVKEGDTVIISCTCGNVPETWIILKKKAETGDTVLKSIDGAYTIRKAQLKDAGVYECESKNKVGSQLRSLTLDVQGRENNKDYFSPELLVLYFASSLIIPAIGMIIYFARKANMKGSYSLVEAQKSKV

SMILES | pKd ([1]; BLI, nanofibers, immobilized VCAM-1 protein, read-out: dissociation constant (KD)) | coating of hTreg cells [2] | suppressive capacity in MLR versus uncoated hTregs ([3]; PA coated hTregs (FIG. 13D)) | MLR inhibition profile versus naked hTreg ([3]; PA nanofiber-coated hTreg cells (FIG. 11)) | accumulation of fluorescent PA from Treg coating (injured kidney) | association with VCAM-1 protein in BLI ([1]; all concentrations of PA investigated (0.1 mM-100 nM)) | binding of coated hTregs to VCAM1 surface (VCAM-1; PA coated hTregs (FIG. 13C)) | binding of coated hTregs to VCAM1 surface (VCAM-1; cells coated using 1 mM PA incubation solution)
CCCCCCCCCCCCCCCC(=O)N[C@H](C(=O)N[C@H](C(=O)N[C@H](C(=O)N[C@@H](C)C(=O)N[C@@H](C)C(=O)N[C@@H](C)C(=O)N[C@@H](CCC(=O)O)C(=O)N[C@@H](CCC(=O)O)C(=O)N[C@@H](CCC(=O)O)C(=O)NCC(=O)N[C@@H](CO)C(=O)NCC(=O)N[C@H](C(=O)N[C@@H](Cc1c[nH]cn1)C(=O)N1CCC[C@H]1C(=O)N[C@@H](CCCCN)C(=O)N[C@@H](CCC(N)=O)C(=O)N[C@@H](Cc1c[nH]cn1)C(N)=O)C(C)C)C(C)C)C(C)C)C(C)C [VCAMb PA, C16-V3A3E3GSGVHPKQH (SEQ ID NO: 14)] (HELM PEPTIDE1{[CCCCCCCCCCCCCCCC(=O)[*:2]].V.V.V.A.A.A.E.E.E.G.S.G.V.H.P.K.Q.H.[am]}$$$$V2.0) | 6.55 |  |  |  |  |  |  | 
CCCCCCCCCCCCCCCC(=O)N[C@H](C(=O)N[C@H](C(=O)N[C@H](C(=O)N[C@@H](C)C(=O)N[C@@H](C)C(=O)N[C@@H](C)C(=O)N[C@@H](CCC(=O)O)C(=O)N[C@@H](CCC(=O)O)C(=O)N[C@@H](CCC(=O)O)C(N)=O)C(C)C)C(C)C)C(C)C [backbone PA, C16-V3A3E3 (SEQ ID NO: 5)] (HELM PEPTIDE1{[CCCCCCCCCCCCCCCC(=O)[*:2]].V.V.V.A.A.A.E.E.E.[am]}$$$$V2.0) |  | efficiently coated cells | small reduction in suppressive capacity | no statistical difference | accumulated in injured kidney | negligible binding | specifically bound to inflammation marker VCAM1 | substantially reduced binding kinetics
